{"source": "patent US6472541B2", "about": "“Protecting groups with increased photosensitivities” (The Regents of the University of California, priority 1998, dated 2002)", "origin": "cited, not measured here", "settings": "known value of reference compound, cited from earlier work", "note": "Where two headings read alike, the source gives them in different places. At least one compound was matched to its structure with a doubt left."}
{"smiles": "O=C1OC2(c3ccc(O)cc3Oc3cc(O)ccc32)c2ccccc21", "note": "[fluorescein]", "values": [{"measurement": "Two-photon absorbance cross-section δaF", "setting": "740 nm", "value": 30, "unit": "GM"}, {"measurement": "Two-photon absorbance cross-section δaF", "setting": "800 nm", "value": 38, "unit": "GM"}, {"measurement": "Fluorescence quantum yield Qf2", "value": 0.9}]}
